These results are taken from article doi:10.1101/2022.01.04.474920.

These are yes or no findings as the source states them, for the method shown. In cells and extracts the contact can be indirect. A result given as binding can be weak or reduced; the word gives no strength. Tags and fused reporters may be left off the sequences shown.

The assay addresses T1, zebrafish Npas4l-V5 (zebrafish) (UniProt P0DOC7).
T1 sequence: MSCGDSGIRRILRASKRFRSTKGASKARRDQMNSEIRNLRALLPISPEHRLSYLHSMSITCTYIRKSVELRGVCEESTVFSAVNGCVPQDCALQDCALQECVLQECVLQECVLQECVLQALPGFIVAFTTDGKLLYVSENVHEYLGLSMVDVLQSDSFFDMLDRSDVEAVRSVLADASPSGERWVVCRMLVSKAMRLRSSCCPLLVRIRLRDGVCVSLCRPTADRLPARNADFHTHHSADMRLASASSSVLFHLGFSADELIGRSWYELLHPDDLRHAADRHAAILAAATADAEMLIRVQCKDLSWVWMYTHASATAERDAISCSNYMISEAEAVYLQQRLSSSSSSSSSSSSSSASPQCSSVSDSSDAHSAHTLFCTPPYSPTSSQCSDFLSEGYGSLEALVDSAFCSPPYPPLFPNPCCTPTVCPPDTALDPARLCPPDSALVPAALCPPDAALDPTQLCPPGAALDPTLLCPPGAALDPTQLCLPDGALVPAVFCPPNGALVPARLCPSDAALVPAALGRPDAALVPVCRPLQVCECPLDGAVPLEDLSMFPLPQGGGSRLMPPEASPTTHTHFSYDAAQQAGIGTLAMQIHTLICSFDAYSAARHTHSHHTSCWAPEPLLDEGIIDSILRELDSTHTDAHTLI
Briefly: co-IP.

As for zebrafish Arnt1-myc, the binding result is “binds”.
